# Percent effect of library compounds

The chains behind the UniProt entries cited, without tags or fusion partners. Residues count along the entry.
UniProt I6X8D2, whole entry: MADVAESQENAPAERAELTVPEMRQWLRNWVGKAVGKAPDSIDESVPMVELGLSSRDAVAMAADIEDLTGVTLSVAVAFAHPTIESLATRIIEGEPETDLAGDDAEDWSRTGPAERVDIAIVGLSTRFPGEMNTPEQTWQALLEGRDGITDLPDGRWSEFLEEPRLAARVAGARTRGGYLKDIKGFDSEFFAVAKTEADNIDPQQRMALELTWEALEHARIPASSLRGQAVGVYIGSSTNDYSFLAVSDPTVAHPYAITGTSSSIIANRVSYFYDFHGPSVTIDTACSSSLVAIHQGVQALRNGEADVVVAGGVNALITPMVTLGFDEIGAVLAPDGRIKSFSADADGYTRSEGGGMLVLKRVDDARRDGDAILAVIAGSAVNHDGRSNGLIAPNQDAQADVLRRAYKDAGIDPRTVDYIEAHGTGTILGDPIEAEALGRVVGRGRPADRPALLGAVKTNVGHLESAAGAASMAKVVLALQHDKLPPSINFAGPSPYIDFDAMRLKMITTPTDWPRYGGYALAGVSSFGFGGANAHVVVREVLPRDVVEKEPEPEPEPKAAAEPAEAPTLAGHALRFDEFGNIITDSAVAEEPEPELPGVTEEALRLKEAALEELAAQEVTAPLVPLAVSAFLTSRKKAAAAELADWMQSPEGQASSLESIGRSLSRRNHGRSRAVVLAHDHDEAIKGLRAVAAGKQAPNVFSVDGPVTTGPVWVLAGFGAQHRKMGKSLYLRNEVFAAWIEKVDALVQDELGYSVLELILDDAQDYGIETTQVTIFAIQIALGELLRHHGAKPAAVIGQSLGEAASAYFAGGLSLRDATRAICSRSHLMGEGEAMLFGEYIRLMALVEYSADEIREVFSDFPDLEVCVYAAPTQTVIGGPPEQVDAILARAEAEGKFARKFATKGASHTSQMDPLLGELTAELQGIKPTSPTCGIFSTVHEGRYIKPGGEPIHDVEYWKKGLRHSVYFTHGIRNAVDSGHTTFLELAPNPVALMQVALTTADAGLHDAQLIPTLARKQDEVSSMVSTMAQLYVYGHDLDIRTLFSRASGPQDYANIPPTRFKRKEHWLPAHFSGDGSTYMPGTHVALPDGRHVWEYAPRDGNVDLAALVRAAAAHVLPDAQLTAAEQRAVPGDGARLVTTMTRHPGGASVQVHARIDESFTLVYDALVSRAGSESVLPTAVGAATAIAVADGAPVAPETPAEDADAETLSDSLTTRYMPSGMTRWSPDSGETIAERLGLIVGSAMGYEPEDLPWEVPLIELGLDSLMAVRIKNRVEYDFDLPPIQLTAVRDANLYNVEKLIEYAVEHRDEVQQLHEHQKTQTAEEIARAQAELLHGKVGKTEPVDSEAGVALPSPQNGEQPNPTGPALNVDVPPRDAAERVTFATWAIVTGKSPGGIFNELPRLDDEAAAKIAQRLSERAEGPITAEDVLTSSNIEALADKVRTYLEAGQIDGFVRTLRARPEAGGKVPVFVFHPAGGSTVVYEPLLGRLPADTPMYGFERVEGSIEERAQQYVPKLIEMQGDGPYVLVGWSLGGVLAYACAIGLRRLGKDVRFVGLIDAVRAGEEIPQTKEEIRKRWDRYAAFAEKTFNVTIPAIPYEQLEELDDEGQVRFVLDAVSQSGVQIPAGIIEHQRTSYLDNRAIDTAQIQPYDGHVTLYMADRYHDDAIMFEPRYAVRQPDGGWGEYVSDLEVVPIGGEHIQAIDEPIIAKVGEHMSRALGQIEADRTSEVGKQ
UniProt A4I591, 1-473: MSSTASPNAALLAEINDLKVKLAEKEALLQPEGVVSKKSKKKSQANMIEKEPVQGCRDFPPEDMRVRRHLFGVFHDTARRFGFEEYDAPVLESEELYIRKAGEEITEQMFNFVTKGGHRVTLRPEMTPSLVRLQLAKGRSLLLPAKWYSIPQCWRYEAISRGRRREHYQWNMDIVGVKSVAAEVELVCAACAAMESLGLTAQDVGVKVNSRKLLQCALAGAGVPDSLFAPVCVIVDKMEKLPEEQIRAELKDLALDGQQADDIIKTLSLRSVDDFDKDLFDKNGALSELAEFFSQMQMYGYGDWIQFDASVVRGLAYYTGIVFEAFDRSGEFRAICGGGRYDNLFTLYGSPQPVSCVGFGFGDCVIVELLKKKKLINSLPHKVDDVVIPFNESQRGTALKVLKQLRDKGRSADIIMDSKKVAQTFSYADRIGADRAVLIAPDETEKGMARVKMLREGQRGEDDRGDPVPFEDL

Pks13 thioesterase: 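Enzyme assay of the thioesterase domain of polyketide synthase 13; the read-out is not stated. Target: Polyketide synthase Pks13, Mycobacterium tuberculosis (UniProt I6X8D2). Concentration: 30 µM. The record gives no direction; the compounds picked for IC50 retests had high values, so higher reads as stronger inhibition. About 67,000 compounds were tested under these conditions; 0.46% (about 300) showed 50% or more at least once.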
LiHisRS: 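Histidine-tRNA ligase, Leishmania infantum (UniProt A4I591). Enzyme assay of histidyl-tRNA synthetase; the read-out is not stated. Compounds at 30 µM. The record gives no direction; compounds that gave an IC50 in retests scored well above the rest, so higher reads as stronger inhibition. The assay is labelled LdHisRS but filed under L. infantum. Size under these conditions: about 69,000 compounds, about 410 of them at 50% or above in at least one test.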

Values are the deposited “Percent Effect”, in %.
The record does not define 0% and 100%; most values in the screen are far below 50% and negative numbers occur (in some assays of this library far below -100).
This is an unselected part of the compounds tested.

{"compound": "O=S(=O)(NCCNc1ccc(-n2cccc2)nn1)c1ccccc1", "Pks13 thioesterase": -30.52, "LiHisRS": 5.217}
{"compound": "COc1ccc2c(c1)C(=O)NC1(CC2)CCN(Cc2ccccc2)C1", "stereo": "centres undefined", "LiHisRS": 15.94}
{"compound": "CNC(=O)c1cc2c(nc1NCC(C)C)CCN(S(=O)(=O)N(C)C)CC2", "Pks13 thioesterase": -473.7, "LiHisRS": 11.84}
{"compound": "CCN(CC)C(=O)[C@@H]1C[C@@H](n2cc(-c3cccc(OC)c3)nn2)CN1", "Pks13 thioesterase": -22.19, "LiHisRS": 15.79}
{"compound": "Cc1cccc2c1nc1n2[C@@H](CNC2CCCCC2)COC1", "Pks13 thioesterase": -32.78, "LiHisRS": 20.27}
{"compound": "COc1cc(C)ccc1C(=O)N1CCC2(CCC(=O)N(C(C)C)C2)CC1", "Pks13 thioesterase": -29.69, "LiHisRS": 12.82}
{"compound": "COCCNC(=O)c1cc(C(C)C)nc(N2CCCC2)n1", "Pks13 thioesterase": -2.291, "LiHisRS": 15.52}
{"compound": "O=C(c1ccccn1)N1CCC2(CC1)COC(COCC1CC1)C2", "stereo": "centres undefined", "Pks13 thioesterase": -4.016, "LiHisRS": 10.91}
{"compound": "CN1CC[C@]2(CN(Cc3nccs3)C[C@H]2c2ccccc2)C1=O", "Pks13 thioesterase": -35.32, "LiHisRS": 2.632}
{"compound": "Cc1nn(-c2ccccc2)nc1C(=O)N1CCCC1c1cnn(C)c1", "stereo": "centres undefined", "Pks13 thioesterase": -11.99, "LiHisRS": 12.31}
{"compound": "CSCC(CCO)NC(=O)Nc1cccc(Br)c1", "stereo": "centres undefined", "Pks13 thioesterase": -18.08, "LiHisRS": 17.31}
{"compound": "CS(=O)(=O)N1CCC(O)(Cn2c(C3CC3)nc3ccccc3c2=O)CC1", "Pks13 thioesterase": -40.05, "LiHisRS": 11.11}
{"compound": "C=C(C)CN(CC)C(=O)c1cc(F)ccc1NS(C)(=O)=O", "LiHisRS": 16.13}
{"compound": "COc1ccc(Cl)cc1CN(C)C(=O)CN1C(=O)CCC1C", "stereo": "centres undefined", "Pks13 thioesterase": -16.35, "LiHisRS": 16.67}
{"compound": "Cc1ncncc1C(=O)NCCn1nc2ccccn2c1=O", "Pks13 thioesterase": -1.353, "LiHisRS": 16.51}
{"compound": "CN(C)[C@@H]1CN(C(=O)Cc2cccs2)[C@@H]2CCCO[C@H]12", "Pks13 thioesterase": -8.311, "LiHisRS": 11.71}
{"compound": "Cc1cccc(COCC2c3nnn(C)c3CCN2Cc2ccoc2)n1", "stereo": "centres undefined", "Pks13 thioesterase": -22.75, "LiHisRS": 19.3}
{"compound": "CN(CCOc1ccccc1Cl)S(=O)(=O)N1CCOCC1", "Pks13 thioesterase": -20.26, "LiHisRS": -61.84}
{"compound": "Clc1cccc(N[C@H]2CCCN[C@H]2Cc2ccccc2)c1", "Pks13 thioesterase": 9.843, "LiHisRS": 21.13}
{"compound": "CN(C)C(=O)COC1COC2(CCN(CC3CCOCC3)CC2)C1", "stereo": "centres undefined", "Pks13 thioesterase": -13.83, "LiHisRS": 0}
{"compound": "CC(C)c1nc(-c2cc(C(=O)NCCN(C)C)c3ccccn23)cs1", "Pks13 thioesterase": -39.47, "LiHisRS": 26.5}
{"compound": "O[C@H]1CN(CCCOc2ccccc2F)CC[C@@]12CCCO2", "Pks13 thioesterase": 10.82, "LiHisRS": 2.817}
{"compound": "CC(C)c1nn(C)c(N(C)C)c1CNC1CCOc2c(F)cccc21", "stereo": "centres undefined", "Pks13 thioesterase": 2.492, "LiHisRS": 19.64}
{"compound": "CCCc1nnsc1C(=O)NCC1CCN(c2ncccn2)CC1", "Pks13 thioesterase": -4.955, "LiHisRS": -274.4}
{"compound": "CCOCCCC(=O)N1CCCC1c1nc(-c2ccccc2F)c[nH]1", "stereo": "centres undefined", "Pks13 thioesterase": -39.33, "LiHisRS": 5}
{"compound": "Cc1cccc(CN2CCCC(O)(CNCCN3CCCCC3)C2=O)c1", "stereo": "centres undefined", "Pks13 thioesterase": -2.297, "LiHisRS": 10.75}
{"compound": "CCCN1CCCn2nc(CNC(=O)CCc3scnc3C)cc2C1", "Pks13 thioesterase": -0.3408, "LiHisRS": 18.27}
{"compound": "COc1ccc2c(c1)OCC(Cc1ccc(N)cn1)C2", "stereo": "centres undefined", "Pks13 thioesterase": -16.04, "LiHisRS": 15.15}
{"compound": "CCN(CC)CCn1c(=O)oc2ccccc21", "Pks13 thioesterase": -12.43, "LiHisRS": 21.84}
{"compound": "Cc1cccc(N2CC[C@H]3[C@H](CO[C@@H]3CN(C)Cc3ccco3)C2)n1", "Pks13 thioesterase": 0.7408, "LiHisRS": 11.54}
{"compound": "COCCCC1CCCN(Cc2c(C)ccc3ncccc23)C1", "stereo": "centres undefined", "Pks13 thioesterase": 11.96, "LiHisRS": -6.667}
{"compound": "CC(C)(C)n1ncc2c(=O)n(CC(=O)NCCc3ccccc3)cnc21", "Pks13 thioesterase": -17.96, "LiHisRS": 3.478}
{"compound": "Cc1c(CN2CCc3[nH]cnc3C2C2CC2)[nH]c2ccc(F)cc12", "stereo": "centres undefined", "Pks13 thioesterase": -17.77, "LiHisRS": 15.56}
{"compound": "Cc1cc(C(=O)NS(C)(=O)=O)ccc1I", "LiHisRS": 17.14}
{"compound": "CC1(C)CN(Cc2c[nH]c(CC3CCCC3)n2)CC[C@]1(C)O", "Pks13 thioesterase": -10.52, "LiHisRS": 5.714}
{"compound": "Cc1ccnc(C(NC(=O)c2ccc(O)nc2C)C2CC2)n1", "stereo": "centres undefined", "Pks13 thioesterase": 24.94, "LiHisRS": 31.62}
{"compound": "Cc1cc(C)c(C(=O)N2CCc3c(ncn3CCc3ccccc3)C2)[nH]1", "Pks13 thioesterase": -19.53, "LiHisRS": -4}
{"compound": "Cc1ncccc1NC(=O)[C@@H]1C[C@@H]2CCN(Cc3cccs3)C[C@H]2O1", "LiHisRS": 17.65}
{"compound": "COCCCNS(=O)(=O)c1cc(C)sc1C", "Pks13 thioesterase": -41.24, "LiHisRS": 12.7}
{"compound": "CN1CCN(C(=O)[C@@H]2CN(C)C[C@]23COc2ccc(F)cc2C3=O)CC1", "Pks13 thioesterase": -1.873, "LiHisRS": -4.225}
{"compound": "CN(C)c1ccc(-c2cc(=O)n3c(n2)CCCCC3)cc1", "Pks13 thioesterase": 41.93, "LiHisRS": 6.522}
{"compound": "Cc1nc2ccc(C(=O)N3CC[C@H](O)[C@@H](N4CCOCC4)CC3)cc2[nH]1", "Pks13 thioesterase": 5.778, "LiHisRS": 5.263}
{"compound": "Cc1ccc(C2CSCCN2C(=O)c2cccnc2)cc1", "stereo": "centres undefined", "Pks13 thioesterase": -14.34, "LiHisRS": 12.5}

The values are deposited in ChEMBL (CHEMBL3988442, “University of Dundee, Small-Polar-MMV Screening Library” (2021)).